Measured values reported in US20240376204A1.

The chains behind the UniProt entries cited, without tags or fusion partners. Where a name states a change or a piece, a line headed by the entry shows the natural chain unless it says otherwise.
UniProt Q6DKI7: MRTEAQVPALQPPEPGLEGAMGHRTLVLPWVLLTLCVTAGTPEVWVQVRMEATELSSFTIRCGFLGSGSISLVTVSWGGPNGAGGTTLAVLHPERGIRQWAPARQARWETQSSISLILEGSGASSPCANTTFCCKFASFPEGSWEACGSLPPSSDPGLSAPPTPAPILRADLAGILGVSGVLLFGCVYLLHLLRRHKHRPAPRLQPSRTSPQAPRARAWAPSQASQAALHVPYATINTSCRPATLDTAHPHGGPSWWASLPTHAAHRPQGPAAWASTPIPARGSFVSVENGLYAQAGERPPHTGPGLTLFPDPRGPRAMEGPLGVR

B1: 30H2 (Fc fusion, not shown: a dimerising Fc or GST)
chain: EVQLVESGGGLVQPGGSLRLSCAASGFTFSGDCMGWFRQAPGKGLDEGVATIDNAGRIKYADSVKGRFTISRDNAKNSLYLQMNSLRAEDTAVYYCAAGWTFGGQCSPADWGQGTQVTVSS
B2: 30H3 (Fc fusion, not shown: a dimerising Fc or GST)
chain: B1 chain with F27Y, T28S, F29Y
B3: 151H7 (Fc fusion, not shown: a dimerising Fc or GST)
chain: HVQLVESGGGLVQPGGSLRLSCVASASGFTYRPYCMAWFRQAPGKEREAVAGIDIFGGTTYADSVKGRFTASRDNAGFSLYLQMNSLRAEDTAVYYCAAGDSPDGRCPPLGQGLNYWGQGTMVTVSS
B4: A6 (VHH, variable region) (VHH)
VHH: EVQLVESGGGLVQAGGSLRLSCAVSGRTFSSAAMGWFRQAPGKEREFVAAISWSFGSTYYADSVKGRFTISRDNAKNTVYLQMNSLKPEDTAVYYCAADPSIETMGGGWDYWGQGTQVTVSS
B5: A17 (VHH, variable region) (VHH)
VHH: EVQVVESGGGLVQPGGSLRLSCVASGLTFSDYSMSWYRQAPGKERELVAIISGSGVIAHYVDSVKGRFTISRDNAKSTVYLQMVSLKPEDRGVYYCRAVSDWDDYWGQGTQVTVSS
B6: Tab5 (antibody, human IgG4 S228P, kappa, F234A L235A, V domains shown)
VH: EVQLVESGGGVVKPGGSLRLSCAASGFTFGTSSMNWVRQAPGKGLEWVAVISFDGTEIHYADSVKGRFTISRDNSKSTVFLQMNSLRPDDTALYYCAKGSGNIYFYSGMDVWGQGTTVTVSS
VL: DIQMTQSPSTLSASVGDRVTITCRAGQSISGWLAWFQQKPGKAPNLLIYETSTLESGVPSRFSGSGSGTEYTLTISSLQPDDFATYYCQQYYSYPLTFGQGTKVEIKR

Assays:
[1] = biological target: his-tagged human PVRIG (h-PVRIG-his) recombinant protein (human) (UniProt Q6DKI7); test: BLI (Fortebio)
[2] = biological target: Biotinylated monkey PD-1 protein (Avitag-His Tag) (cynomolgus monkey); test: yeast display, flow cytometry sorting with biotinylated monkey PD-1
[3] = biological target: his-tagged human PVRIG (h-PVRIG-his) recombinant protein (human) (UniProt Q6DKI7); test: ELISA, plate coated with PVRIG protein

| Binder | binding [1] | binding [2] | binding [3] |
| --- | --- | --- | --- |
| B1 | binds | – | – |
| B2 | binds | – | – |
| B3 | binds | – | – |
| B4 | – | binds | – |
| B5 | – | binds | – |
| B6 | binds | – | binds |

Where a chain is given by its changes, count along the chain named. Results are given in words; binding and its absence hold for the method and conditions named. A result given as binding can be weak or reduced; the word gives no strength.
